In US20100016546A1 (priority 2005, published 2010) one finds isolated mass data, which are given here for one sequence.

End groups of sequences in plain letters are not given here.

The nature of this data set: general procedure: Fmoc solid-phase peptide synthesis; Wang resin. Conditions: whole synthesis, scale 0.525 mmol.

With KSSTRGRKSSRRKK, the isolated mass entry is “approximately 39 mg”.
